Test [1] deals with Rat hind-quarters. Kind of test: Vasodilatory activity, isolated rat hind-quarters (antagonism of vasoconstriction by hyperkalaemic Tyrode solution).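 Note: four crosses equal an effect comparable to the standard drug.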 The arrangement: key: ++++: Very intense activity; +++: Considerable activity; ++: Low activity; +: Low activity; 0: Null activity. To be noted: crosses relative to standard drugs cinnarizine and flunarizine. The text has this: (§1) The significance of the symbols is as follows:
In order to test the vasodilatory activity, the first trial employs the technique of the isolated rat hind-quarters (Table 2), which involves antagonizing the vasoconstrictive effect of perfusion of hyperkalaemic Tyrode solution, according to the method of F. N. Fastier and F. H. Smirk (J. Pharm. Exp. Therap. 89, […] (1947)), and then calculating for the products which show the greatest activity, the ED30, that is the dose which produces a 30% vasodilatory activity with respect to the basic vasoconstriction.

In test [2] the test system is Rabbit cerebral territory. Put plainly: Vasodilation in perfused rabbit cerebral territory (variation in perfusion pressure).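 For Vasodilatory Activity (Rabbit cerebral territory) Evaluation: four crosses equal an effect comparable to the standard drug.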 Type of test: in vivo. On the set-up: key to Vasodilatory Activity (Rabbit cerebral territory) Evaluation: ++++: Very intense activity; +++: Considerable activity; ++: Low activity; +: Low activity; 0: Null activity. How it is done: as §1
In a further trial, the vasodilatory activity is evaluated by the technique of vasodilation in perfused rabbit cerebral territory as described by P. Vaupel and H. Hutten (Arzneim. Forsch./Drug Res. 30(I), 598-602 (1980)), calculating the variation in perfusion pressure after treatment (Table 3).
Table 3 employs the same conventional signs based on crosses, with the same relative significance as in Table 2.
The standard drug employed is cinnarizine.
(*) Calculated by multiplying the % vasodilation by duration of action.

Molecules are shown by their SMILES.

The values that follow come from patent US4835156A, “Vasodilatory dihydrodibenzocycloheptyliden-ethyl piperazine derivatives and process for the preparation of these compounds” (Sociedad Espanola De Especialidades Terepeuticas, S.A., priority 1983, dated 1989).

For `C(=C\c1ccccc1)/CN1CCN(C(c2ccccc2)c2ccccc2)CC1` [Cinnarizine, reference compound], the “Vasodilatory Activity (Rat hind-quarters) Evaluation” value in test [1] was “++++”. The “Vasodilatory Index” value in test [2] (% vasodilation multiplied by duration of action) is on record as 535.0 mm^2. In addition, the “Vasodilatory Activity (Rabbit cerebral territory) Evaluation” value in test [2] (crosses relative to standard cinnarizine) is recorded as “++++”.
